# Laboratory results from PubChem BioAssay AID1259415 (National Center for Advancing Translational Sciences (NCATS), 2018).
# Where “and” joins values, the source holds several entries; their conditions need not be identical. Equal values may be shown once. The whole screen tested about 410,000 compounds, of which about 18,000 (4.4%) were called active. Inconclusive results, whose numbers are uncertain, are shown with a selection of clear calls. Rule as the data show it: active = activity change below about -60%; inconclusive = no clear call, values can overlap the other calls; inactive = above about -39%.
# Test: qHTS Assay for inhibitors of the human cytomegalovirus (HCMV)
# Conditions: HFF cells, HCMV-luciferase reporter, 72 h; at 57.5 µM; stronger effect = lower value
# Procedure, shortened: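 Screen run at 2 compound doses on HFFs infected with reporter HCMV, MOI 1 PFU/cell. Luciferase activity from cell lysates at 72 h post infection gave inhibition relative to buffer-only and Salinomycin wells.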
# % is scaled to controls: 0 for no effect and ±100 for the full control effect.
row,SMILES,"activity change, negative = inhibition"
1,COc1ccc(/C=C(\C#N)C(=O)Nc2cc(C)c(Cl)cc2OC)cc1O,inconclusive: -57.3%
2,CC(NC1CCCC1)c1ccccc1 (configuration not stated),inconclusive: -54.5%
3,CCOc1ccccc1NC(=O)NC(=O)N(C)S(=O)(=O)c1ccc(C)cc1,inactive: -5.03%
4,O=C(CN1CC(=O)Nc2ccccc21)NCCc1ccc(Cl)cc1Cl,inconclusive: -47.2%
5,CCOC(=O)N1CCN(c2ccc(N3C(=O)CCCC3=O)cc2[N+](=O)[O-])CC1,inactive: 12.7%
6,Cc1ccc(CNC(=O)CC(C)S(=O)(=O)c2cc3c(cc2C)NC(=O)CO3)cc1 (configuration not stated),inactive: -7.65% and inactive: -2.43%
7,Cc1ccccc1Nc1nc(N)nc(COC(=O)c2ccc(O)cc2)n1,inactive: -6.41%
8,Cc1cccc(N2CCN(C(=O)c3c(-c4ccccc4Cl)noc3C)CC2)c1C,inconclusive: -49.4%
9,CC1(C)CC(NC(=O)CC2CCCCC2)CC(C)(C)N1,inconclusive: -41.2%
10,Cc1cc(C(F)(F)F)nn1CC(=O)NCc1ccco1,inactive: -3.83%
11,COc1ccc(-c2nc(-c3ccc4c(c3)OCO4)[nH]c2-c2ccc(OC)cc2)cc1,active: -102%
12,O=C1CC(c2ccc3c(c2)OCO3)Sc2nc3ccccc3n21 (configuration not stated),inconclusive: -51.6%
13,O=C(c1cc(-c2ccc(Br)cc2)nc2ccccc12)N1CCN(c2ccccc2O)CC1,inactive: -16%
14,Cc1cc(-c2ccc(C)c(S(=O)(=O)N3CCN(c4cccc(C(F)(F)F)c4)CC3)c2)on1,inconclusive: 0%
15,Cc1cccc(CCNC(=O)c2ccc3c(c2)N(Cc2ccccc2F)C(=O)c2ccccc2S3)c1,inconclusive: -46.1%
16,Cc1ccc(-c2cc(C(=O)Nc3cc(C)on3)no2)cc1,inactive: 19.1%
17,N#C/C(=C(/O)c1cccs1)c1nnc2n1CCCCC2,inconclusive: -51.8%
18,CN(C)CCCn1c(NC(=O)C2CCCCC2)nc2ccccc21,inconclusive: -56.2%
19,O=C(/C=C/c1cccc(O)c1)c1ccc(N2CCOCC2)cc1,inactive: 28.6%
20,COc1cccc(NC(=O)c2ccc(NC(=O)C3CC(=O)OC34CCCCC4)cc2)c1 (configuration not stated),inconclusive: -46.4%
21,Cc1ccc(C)c(N2CCN(C(=O)C3CCN(c4nc5ccc(C)cc5[nH]4)CC3)CC2)c1,inactive: 0%
22,COc1cccc(S(=O)(=O)N2CCN(C(=O)c3ccco3)CC2)c1,active: -85.5%

row,SMILES,"activity change, negative = inhibition"
1,Cc1cc(S(=O)(=O)NCCN2CCOCC2)ccc1Cl,inactive: -5.14%
2,O=C(NNc1cc(Br)c(O)c(Br)c1)c1ccccc1,inconclusive: -40.8%
3,CCCCCCSc1ccc([C@H]2N[C@@](C)(C(=O)OC)[C@H]3C(=O)N(CC)C(=O)[C@@H]23)cc1,inactive: 5.81%
4,O=C(CCl)Nc1ccccc1Sc1ccc(Cl)cc1,active: -103%
5,O=C1N(c2ccc3c(c2)OCCO3)C(c2ccccc2)C1(F)F (configuration not stated),inconclusive: -50.2%
6,COc1ccc(CCNC(=O)C(C)n2nc(C)c3c(C)n(-c4ccc(C)cc4)nc3c2=O)c(OC)c1 (configuration not stated),active: -98%
7,Cc1ccc(NC(=O)c2cncc(Br)c2)c([N+](=O)[O-])c1,inconclusive: -40.7%
8,CCN(CC)C(=O)c1sc2c(c1C)c(=O)n(-c1ccc(Cl)c(Cl)c1)c(=O)n2Cc1ccccc1C#N,inactive: -6.16%
9,Cc1cc(C)c(C#N)c(SCc2ccccc2F)n1,inconclusive: -42.1%
10,O=C(Nc1cccc(Cl)c1)c1ccc(F)c(S(=O)(=O)NCc2cccs2)c1,active: -92.8%
11,CC(OC(=O)CCCN=C1NS(=O)(=O)c2ccccc21)C(=O)Nc1ccccc1F (configuration not stated),inactive: -6.83%
12,COc1ccc(C2CC(c3cccs3)=NN2C(=O)CSc2nc3ccccc3o2)cc1 (configuration not stated),inconclusive: -44.7%
13,O=C(CN1CCN(c2ccc(O)cc2)CC1)Nc1ccc2c(c1)OCCO2,inconclusive: -47.3%
14,Cc1nc2scc(C)n2c(=O)c1S(=O)(=O)Nc1ccc(N2CCOCC2)c(Cl)c1,inactive: -19.8% and inconclusive: -56.4%
15,O=c1sc2ccccc2c(=O)n1Cc1ccccc1F,inconclusive: -52.4%
16,N#CCc1cnc2ccccc2n1,inactive: 14.4%
17,CCc1cccc(C)c1NC(=O)Cn1ccn(-c2cccc(OC)c2)c(=O)c1=O,inactive: 27.8%
18,CC(NC(=O)c1nn(C)c(=O)c2ccccc12)c1ccc(F)cc1 (configuration not stated),inconclusive: -51.5%
19,Cc1ccc(-c2nc3ccccc3s2)cc1NC(=S)NC(=O)c1ccccc1,inactive: 115%
20,COc1ccc(CCNC(=O)c2cc(=O)[nH]c3ccccc23)cc1,inactive: -21.7%
21,CN(CC(=O)Nc1cccc(F)c1)C(=O)Cn1c(=O)oc2ccccc21,inactive: -9.63%
22,O=C(OCC(=O)N1CCOCC1)c1ccc2[nH]c3c(c2c1)CCCC3,inconclusive: -42.5%

row,SMILES,"activity change, negative = inhibition"
1,O=C(COc1ccc(F)cc1)N(Cc1cccs1)C1CCS(=O)(=O)C1 (configuration not stated),inconclusive: -46.8%
2,O=C1NC(Nc2nc3ccccc3s2)(C(F)(F)F)C(=O)N1C1CCCCC1 (configuration not stated),active: -63.1%
3,CC(C)n1c(SCC(=O)Nc2ccccc2)nc2c1c(=O)n(C)c(=O)n2C,inactive: -28.5%
4,CCc1ccc(-n2cnc3cc(C(=O)NCc4ccc(C)cc4)ccc32)cc1,inactive: -13.5%
5,Nc1nc(N)c2cc(S(=O)(=O)c3cccc(C(F)(F)F)c3)ccc2n1,inconclusive: -54.9%
6,COC(=O)c1cc(S(=O)(=O)N2CCN(c3cccc(C)c3)C(C)C2)cn1C (configuration not stated),inactive: -9.42%
7,CCCCOCC1CN(CCCC)S(=O)(=O)c2c(cccc2N2CCCCC2)O1 (configuration not stated),inactive: -1.1%
8,NC(=O)[C@@H]1CCCN1Cc1nc(Cc2ccccc2F)no1,inconclusive: -46.5%
9,Fc1ccccc1-c1[nH]ncc1-c1nnnn1-c1ccccc1,inconclusive: -50.4%
10,COc1ccc(-c2nc(CS(=O)CC(=O)NC3CCCC(C)C3C)c(C)o2)cc1OC (configuration not stated),inconclusive: -43%
11,CC(=O)Nc1sc2c(c1C(c1ccncc1)N1CCOCC1)CCCC2 (configuration not stated),inactive: 9.15%
12,CC(=O)c1ccc(OCCCC(=O)Nc2ccc(C)c(S(=O)(=O)N(C)C)c2)cc1,inconclusive: -51.8%
13,Clc1ccc(/C=C/c2nc3ccccc3[nH]2)cc1,inconclusive: -53.2%
14,Cc1ccc(C(C(=O)NC2CCCC2)N(C(=O)c2csnn2)c2ccccc2)o1 (configuration not stated),inconclusive: -51.1%
15,O=C(N1CCN=C1SCc1cccnc1)C12CC3CC(CC(C3)C1)C2,inconclusive: -42.3%
16,CCCc1cc(=O)[nH]c(Nc2ccc3c(c2)OCCO3)n1,inconclusive: -47.9%
17,O=C(NCc1cccnc1)c1ccc(COc2ccccc2Br)cc1,active: -76.5%
18,COc1ccc(N2CCN(C(=O)CCn3nc(C)c(S(=O)(=O)N4CCCC4)c3C)CC2)cc1,inconclusive: -48%
19,CC(=O)c1sc(NC(=O)C2(F)C(F)(F)C(F)(F)C(F)(F)C(F)(F)C2(F)F)nc1C,active: -98.4%
20,COc1ccc2cc(CN(Cc3cccs3)Cc3nnnn3Cc3ccccc3)c(=O)[nH]c2c1,active: -99.4%
21,CCN(CC)S(=O)(=O)c1ccc2c3c(cccc13)C(=O)S2,inconclusive: -48%
22,CCC(=O)Nc1cc(-c2nn(C)c(=O)c3ccccc23)ccc1OC,inactive: 130%

# Gathered by group, the entries above containing a nitro group on carbon
row,SMILES,"activity change, negative = inhibition"
5,CCOC(=O)N1CCN(c2ccc(N3C(=O)CCCC3=O)cc2[N+](=O)[O-])CC1,inactive: 12.7%
7,Cc1ccc(NC(=O)c2cncc(Br)c2)c([N+](=O)[O-])c1,inconclusive: -40.7%

# Continued:

row,SMILES,"activity change, negative = inhibition"
1,COc1ccc(-c2oc3ccccc3c2C#CC(C)(C)O)cc1,inactive: 1.14%
2,CC(=NNC(=S)N1CCCCCC1)c1ccccn1,active: -98.7%
3,CCOc1ccc(C(=O)Nc2ccc3nc(N(CC)CC)cc(C)c3c2)cc1,active: -86.1%
4,CCCCN(C)CCCNC(=O)c1cn(C)c2ccc(S(=O)(=O)N(C)C3CCCCC3)cc2c1=O,inconclusive: -58%
5,Cc1cc(-c2csc(N)n2)c(C)n1CCC(C)C,inconclusive: -45.9%
6,CC1(C)CC(=O)C2=C(C1)N1C(=C(C#N)C2c2ccc(Cl)cc2)N=C(N)c2ccccc21 (configuration not stated),active: -92.6%
7,CCOC(=O)c1c(-c2ccc(C)cc2)csc1NC(=O)CCN1CCOCC1,inconclusive: -49%
8,Nc1cccnc1Oc1ccc(F)cc1,inconclusive: -42.9%
9,COc1ccc(NC(=O)NC(C(F)(F)F)C(F)(F)F)cc1,inconclusive: -47.1%
10,Cc1ccc(NC(=O)Cn2c(=O)n(Cc3ccc4c(c3)OCO4)c(=O)c3oc4ccccc4c32)cc1C,inactive: 14.3%
11,COc1ccccc1-c1ccc2c(c1)C(C)(Cc1ccc(F)c(Cl)c1)C(=O)N2 (configuration not stated),inconclusive: -56.8%
12,c1cc2c(cc1C1=Nn3c(nnc3C3CCCCC3)SC1)OCO2,inconclusive: -45.3%
13,CC(C)c1ccc(NC(=O)Cn2nnc(C(=O)NCc3ccc4c(c3)OCO4)c2N)cc1,inconclusive: -56.2%
14,CC(=C\c1ccccc1)/C=C1/SC(=S)N(CCC(=O)O)C1=O,inconclusive: -47.7%
15,CCC(C)c1ccccc1NC(=O)c1cccc(-n2cnnn2)c1 (configuration not stated),inconclusive: -56.4%
16,O=c1oc(-c2ccccc2Br)nc2ccccc12,inconclusive: -50.9%
17,COc1cccc(NS(=O)(=O)c2ccc3[nH]cc(C(=O)NC(C)c4ccccc4)c(=O)c3c2)c1 (configuration not stated),inconclusive: -48.2%
18,CCOC(=O)C1(CCOc2ccccc2)CCN(Cc2ccc3c(c2)OCCO3)CC1,inconclusive: -43.1%
19,O=C1CN=C(c2ccc(Br)cc2)c2c(sc3c2CCCC3)N1CCN1CCCCC1,active: -96.7%
20,CCCOc1ccc([C@@H]2C3CN(C(=O)OCC)CC=C3C(C#N)=C(N)C2(C#N)C#N)cc1OC (some centres not stated),inactive: -21.3%
21,Cc1ccc(C(=O)N2CCN(c3ccc(NC(=O)COc4ccccc4C)cc3)CC2)cc1,inconclusive: -58.6%

# Quoted from the results shown, 4 compounds:
row,SMILES,"activity change, negative = inhibition"
6,COc1ccc(CCNC(=O)C(C)n2nc(C)c3c(C)n(-c4ccc(C)cc4)nc3c2=O)c(OC)c1 (configuration not stated),active: -98%
7,Cc1ccc(NC(=O)c2cncc(Br)c2)c([N+](=O)[O-])c1,inconclusive: -40.7%
8,CCN(CC)C(=O)c1sc2c(c1C)c(=O)n(-c1ccc(Cl)c(Cl)c1)c(=O)n2Cc1ccccc1C#N,inactive: -6.16%
9,Cc1cc(C)c(C#N)c(SCc2ccccc2F)n1,inconclusive: -42.1%
